Measured data: PubChem BioAssay AID720505 (Drosophila RNAi Screening Center, 2013)
Screen: 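Fly regulators or components of the CRAC channel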 (primary screen). System: Drosophila S2R+ cells. Knock-down reagent: long dsRNA against Drosophila genes. Treatment: thapsigargin (2 µM) in calcium-free buffer to empty internal stores, then 2 mM calcium added back. Detection: 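Fluo-4 signal in 384-well plates read on a FLIPR after thapsigargin (2 µM, calcium-free) store depletion and 2 mM calcium add-back; unnormalised mean endpoint per well; screen run twice, selected wells retested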. Direction: calcium signal and retest calcium signal: higher = more calcium entry after store depletion. Call rule: 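About 1500 genes called as lowering calcium entry, by varying amounts, judged against per-plate control wells with STIM1 as positive and Rho1 as negative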. Meaning of the calls: active = called as lowering calcium entry; inactive = not called.
The deposit covers about 20,000 reagents; shown is a random part of those that have a named target and a result. Over the whole deposit, about 2,100 (10%) were called active. 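Raw plate signals without normalisation; calls rest on control-based scores that were not deposited; replicate 2 separates called from uncalled poorly.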 Reagents against one gene are numbered here. Names joined by + are all predicted targets of the reagent. No sequences are given here. The record does not give: the amount of reagent, the time to read-out.

gene | reagent | calcium signal, replicate 1 | calcium signal, replicate 2 | retest calcium signal, replicate 1 | retest calcium signal, replicate 2 | Outcome
veg (retired record) (GeneID 44057) | 1 | 117 | 98.2 | – | – | inactive
CG9445 (GeneID 50147) | 1 | 107 | 109 | – | – | inactive
Spn77Ba (GeneID 40234) | 1 | 115 | 91 | – | – | inactive
CG13309 (GeneID 39012) | 1 | 104 | 72.8 | – | – | inactive
CG14949 (GeneID 38328) | 1 | 87.9 | 75.2 | – | – | inactive
Jhbp4 (GeneID 41948) | 1 | 111 | 160 | – | – | inactive
crp (GeneID 34956) | 1 | 147 | 98.7 | – | – | inactive
CG4116 (GeneID 31291) | 1 | 84.2 | 144 | – | – | inactive
CG2818 (GeneID 33597) | 1 | 132 | 216 | – | – | inactive
cona (GeneID 42213) | 1 | 206 | 178 | – | – | inactive
Lam (GeneID 33782) | 1 | 76.9 | 90 | – | – | inactive
Snm1 (GeneID 40669) | 1 | 106 | 128 | – | – | inactive
Sr-CIII (GeneID 44382) | 1 | 103 | 163 | – | – | inactive
Tsr1 (GeneID 40360) | 1 | 117 | 97.3 | – | – | inactive
Rab3-GEF (GeneID 32442) | 1 | 64.5 | 130 | – | – | active
Rab3-GEF (GeneID 32442) | 2 | 88.2 | 112 | – | – | inactive
Rab3-GEF (GeneID 32442) | 3 | 81.2 | 151 | – | – | inactive
Trpml + CG42638 | 1 | 76.7 | 84.1 | – | – | inactive
Br140 (GeneID 35648) | 1 | 62.5 | 144 | – | – | active
CG16998 (GeneID 38847) | 1 | 126 | 117 | – | – | inactive
Fife (GeneID 38337) | 1 | 65.4 | 112 | – | – | active
Fife (GeneID 38337) | 2 | 90 | 107 | – | – | inactive
Fife (GeneID 38337) | 3 | 74.4 | 72.2 | – | – | inactive
CG15047 (GeneID 32845) | 1 | 94.6 | 136 | 8333 | 140 | inactive
CG15047 (GeneID 32845) | 2 | 153 | 107 | – | – | inactive
CG15186 (GeneID 40797) | 1 | 125 | 141 | – | – | inactive
Trpgamma (GeneID 34991) | 1 | 114 | 103 | – | – | inactive
CG13829 (GeneID 42740) | 1 | 266 | 116 | – | – | inactive
boss (GeneID 43146) | 1 | 238 | 148 | – | – | inactive
CG31016 (GeneID 326113) | 1 | 146 | 104 | – | – | inactive
Wee1 (GeneID 33965) | 1 | 189 | 116 | – | – | inactive
Wee1 (GeneID 33965) | 2 | 112 | 124 | – | – | inactive
insv (GeneID 33441) | 1 | 176 | 130 | – | – | inactive
abo (GeneID 44793) | 1 | 160 | 138 | – | – | inactive
CG9427 (GeneID 41164) | 1 | 132 | 149 | – | – | inactive
CG7173 (GeneID 40392) | 1 | 93.7 | 136 | – | – | inactive
CG7173 (GeneID 40392) | 2 | 115 | 143 | – | – | inactive
Klp3A (GeneID 31240) | 1 | 103 | 139 | – | – | inactive
Klp3A (GeneID 31240) | 2 | 127 | 110 | – | – | inactive
CG42269 (GeneID 38689) | 1 | 53.8 | 53 | – | – | active
CG42269 (GeneID 38689) | 2 | 73.8 | 71.7 | – | – | inactive
CG14326 (GeneID 42120) | 1 | 120 | 134 | – | – | inactive
CG13239 (GeneID 40503) | 1 | 83.3 | 159 | – | – | inactive
CG13310 (GeneID 39007) | 1 | 90.3 | 86.8 | – | – | inactive
nod (GeneID 32107) | 1 | 131 | 102 | – | – | inactive
Nna1 (GeneID 32329) | 1 | 4924 | 88.5 | 90.8 | 108 | active
Nna1 (GeneID 32329) | 2 | 157 | 137 | – | – | inactive
Nna1 (GeneID 32329) | 3 | 69.7 | 94.4 | – | – | active
MtnA (GeneID 41202) | 1 | 127 | 77.6 | – | – | inactive
Acp33A + CG15841 (retired record) | 1 | 157 | 156 | – | – | inactive
Gbeta76C (GeneID 40148) | 1 | 107 | 86 | – | – | inactive
CG3817 (GeneID 41805) | 1 | 117 | 100 | – | – | inactive
CG30026 (GeneID 246399) | 1 | 90 | 125 | – | – | inactive
HmgZ (GeneID 37480) | 1 | 76.6 | 7880 | – | – | inactive
HmgZ (GeneID 37480) | 2 | 176 | 80.8 | 102 | 78.3 | inactive
CG15544 (GeneID 43655) | 1 | 170 | 163 | – | – | inactive
Ugt49B1 (GeneID 37420) | 1 | 94.3 | 104 | – | – | inactive
CG15056 (GeneID 32824) | 1 | 95.3 | 77.9 | – | – | active
Pnn (GeneID 41185) | 1 | 148 | 123 | – | – | inactive
Tpi (GeneID 43582) | 1 | 111 | 173 | – | – | inactive
spab (GeneID 35901) | 1 | 108 | 105 | – | – | inactive
CG12538 (GeneID 41658) | 1 | 155 | 224 | – | – | inactive
Rhp (GeneID 32531) | 1 | 100 | 109 | – | – | inactive
CG14439 (GeneID 31614) | 1 | 171 | 164 | – | – | inactive
CG8613 (GeneID 36593) | 1 | 191 | 98.7 | – | – | inactive
Cp110 (GeneID 33136) | 1 | 177 | 120 | – | – | inactive
Cp110 (GeneID 33136) | 2 | 136 | 109 | – | – | inactive
Amph (GeneID 36383) | 1 | 164 | 185 | – | – | inactive
CG31826 (GeneID 326164) | 1 | 107 | 167 | – | – | inactive
CG31910 + snoRNA:Me28S-G2743 (retired record) | 1 | 75.6 | 174 | – | – | inactive
Hex-A (GeneID 45875) | 1 | 64.5 | 67.9 | – | – | active
Gbp3 (GeneID 42709) | 1 | 242 | 164 | – | – | inactive
Or71a (GeneID 39641) | 1 | 106 | 162 | – | – | inactive
CG8301 (GeneID 41160) | 1 | 180 | 98.2 | – | – | inactive
CG8679 (GeneID 35395) | 1 | 236 | 88.8 | – | – | inactive
BCL7-like (GeneID 31890) | 1 | 130 | 144 | – | – | inactive
CG5071 (GeneID 43090) | 1 | 99.4 | 117 | – | – | inactive
CG5071 (GeneID 43090) | 2 | 94.5 | 186 | – | – | inactive
CG11309 (GeneID 40356) | 1 | 141 | 68.6 | – | – | inactive
Ctf4 (GeneID 36551) | 1 | 115 | 169 | – | – | inactive
mbf1 (GeneID 39842) | 1 | 85.3 | 122 | – | – | inactive
CG31687 + Cdc23 | 1 | 124 | 150 | – | – | inactive
Prx6a (GeneID 33493) | 1 | 98.5 | 248 | – | – | inactive

Copied from the list.
CG3817 (GeneID 41805), calcium signal, replicate 1: 117
CG8679 (GeneID 35395), Outcome = inactive
Under “calcium signal, replicate 2”, CG13239 (GeneID 40503) is entered as 159
Result of CG14326 (GeneID 42120) under “Outcome”: inactive
Klp3A (GeneID 31240) #1, calcium signal, replicate 2 → 139
Under “calcium signal, replicate 2”, CG15056 (GeneID 32824) has 77.9
